Test results: paper PMC6158247
Results are given in words; binding and its absence hold for the method and conditions named. Binding seen in cells or lysates may run through a third protein. Some results given as binding are weak or reduced against the parent protein; the word gives no strength. For some assays here: Tags and fused reporters may be left off the sequences shown. Values belong to the molecule of their own block, whether it stands above or below them.

Sequences of proteins named here, by UniProt entry; tags and fusion partners are left off.
UniProt Q4AC94: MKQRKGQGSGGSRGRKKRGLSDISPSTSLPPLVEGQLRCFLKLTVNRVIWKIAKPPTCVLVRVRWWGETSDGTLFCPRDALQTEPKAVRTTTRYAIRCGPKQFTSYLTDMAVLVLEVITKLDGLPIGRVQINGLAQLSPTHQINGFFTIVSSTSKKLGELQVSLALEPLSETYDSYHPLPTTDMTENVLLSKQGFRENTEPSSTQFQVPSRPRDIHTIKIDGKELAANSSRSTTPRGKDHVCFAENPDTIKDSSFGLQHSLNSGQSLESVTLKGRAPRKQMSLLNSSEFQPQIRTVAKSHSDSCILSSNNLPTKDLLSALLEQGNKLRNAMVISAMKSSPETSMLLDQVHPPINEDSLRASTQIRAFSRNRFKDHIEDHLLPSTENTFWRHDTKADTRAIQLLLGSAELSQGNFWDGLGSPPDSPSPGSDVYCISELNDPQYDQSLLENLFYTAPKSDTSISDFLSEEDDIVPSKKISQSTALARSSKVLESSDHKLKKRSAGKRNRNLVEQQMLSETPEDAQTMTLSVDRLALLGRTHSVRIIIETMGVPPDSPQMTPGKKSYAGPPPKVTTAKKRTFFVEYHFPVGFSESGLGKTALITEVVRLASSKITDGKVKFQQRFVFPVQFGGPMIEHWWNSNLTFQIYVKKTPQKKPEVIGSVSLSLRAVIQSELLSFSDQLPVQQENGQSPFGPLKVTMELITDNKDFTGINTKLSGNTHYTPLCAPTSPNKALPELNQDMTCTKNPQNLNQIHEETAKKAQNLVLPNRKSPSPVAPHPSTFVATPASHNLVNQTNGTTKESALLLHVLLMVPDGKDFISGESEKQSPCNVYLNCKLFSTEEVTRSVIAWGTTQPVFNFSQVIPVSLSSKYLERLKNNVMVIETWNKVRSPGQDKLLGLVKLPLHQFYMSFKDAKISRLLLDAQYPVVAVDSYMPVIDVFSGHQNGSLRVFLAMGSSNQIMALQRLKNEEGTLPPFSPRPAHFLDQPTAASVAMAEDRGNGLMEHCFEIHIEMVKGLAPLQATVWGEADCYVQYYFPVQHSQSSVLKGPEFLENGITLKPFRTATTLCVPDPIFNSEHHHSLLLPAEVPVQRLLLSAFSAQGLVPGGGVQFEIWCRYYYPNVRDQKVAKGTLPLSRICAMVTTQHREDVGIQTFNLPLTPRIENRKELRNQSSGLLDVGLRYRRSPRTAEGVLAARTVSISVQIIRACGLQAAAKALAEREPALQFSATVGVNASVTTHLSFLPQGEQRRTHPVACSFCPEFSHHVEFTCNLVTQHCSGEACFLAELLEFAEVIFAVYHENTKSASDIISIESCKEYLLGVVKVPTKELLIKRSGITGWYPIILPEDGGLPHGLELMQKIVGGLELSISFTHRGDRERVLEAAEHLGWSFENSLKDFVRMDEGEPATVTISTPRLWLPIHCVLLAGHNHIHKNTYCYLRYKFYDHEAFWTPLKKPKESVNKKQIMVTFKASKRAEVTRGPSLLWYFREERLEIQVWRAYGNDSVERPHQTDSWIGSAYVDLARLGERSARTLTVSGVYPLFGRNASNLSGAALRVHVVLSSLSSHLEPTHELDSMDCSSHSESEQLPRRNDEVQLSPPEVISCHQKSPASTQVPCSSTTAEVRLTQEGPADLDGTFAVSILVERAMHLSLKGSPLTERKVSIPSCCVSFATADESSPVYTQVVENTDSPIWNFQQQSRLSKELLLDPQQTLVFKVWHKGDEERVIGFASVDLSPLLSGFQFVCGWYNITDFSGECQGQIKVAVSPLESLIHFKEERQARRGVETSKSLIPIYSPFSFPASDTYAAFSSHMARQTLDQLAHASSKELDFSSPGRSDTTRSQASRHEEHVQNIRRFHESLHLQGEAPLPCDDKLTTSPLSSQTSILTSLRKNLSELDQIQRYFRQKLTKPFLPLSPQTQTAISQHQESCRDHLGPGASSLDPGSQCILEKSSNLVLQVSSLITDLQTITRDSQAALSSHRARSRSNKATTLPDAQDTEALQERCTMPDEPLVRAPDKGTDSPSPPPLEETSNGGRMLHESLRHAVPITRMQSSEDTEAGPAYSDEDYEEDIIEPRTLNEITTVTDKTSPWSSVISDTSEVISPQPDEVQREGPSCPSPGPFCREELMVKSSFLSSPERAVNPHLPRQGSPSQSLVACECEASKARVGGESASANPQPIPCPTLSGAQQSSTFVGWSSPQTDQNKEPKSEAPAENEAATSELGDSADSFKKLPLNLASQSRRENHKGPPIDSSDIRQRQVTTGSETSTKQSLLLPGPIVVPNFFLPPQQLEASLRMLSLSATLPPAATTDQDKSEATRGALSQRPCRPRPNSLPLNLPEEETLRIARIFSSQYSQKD

Legend:
CEP120 = target: T1, CEP120 (UniProt Q8N960); assay: co-IP; Supplementary Fig. 3: Talpid3 truncations and mutant tested with CEP120; cells lysed in ELB buffer (50 mM Hepes pH 7, 150 mM NaCl, 5 mM EDTA, 0.1% NP-40, 1 mM DTT, 10% glycerol); Flag-CEP120 immunoprecipitated, co-immunoprecipitated Myc-Talpid3 blotted
T1 sequence: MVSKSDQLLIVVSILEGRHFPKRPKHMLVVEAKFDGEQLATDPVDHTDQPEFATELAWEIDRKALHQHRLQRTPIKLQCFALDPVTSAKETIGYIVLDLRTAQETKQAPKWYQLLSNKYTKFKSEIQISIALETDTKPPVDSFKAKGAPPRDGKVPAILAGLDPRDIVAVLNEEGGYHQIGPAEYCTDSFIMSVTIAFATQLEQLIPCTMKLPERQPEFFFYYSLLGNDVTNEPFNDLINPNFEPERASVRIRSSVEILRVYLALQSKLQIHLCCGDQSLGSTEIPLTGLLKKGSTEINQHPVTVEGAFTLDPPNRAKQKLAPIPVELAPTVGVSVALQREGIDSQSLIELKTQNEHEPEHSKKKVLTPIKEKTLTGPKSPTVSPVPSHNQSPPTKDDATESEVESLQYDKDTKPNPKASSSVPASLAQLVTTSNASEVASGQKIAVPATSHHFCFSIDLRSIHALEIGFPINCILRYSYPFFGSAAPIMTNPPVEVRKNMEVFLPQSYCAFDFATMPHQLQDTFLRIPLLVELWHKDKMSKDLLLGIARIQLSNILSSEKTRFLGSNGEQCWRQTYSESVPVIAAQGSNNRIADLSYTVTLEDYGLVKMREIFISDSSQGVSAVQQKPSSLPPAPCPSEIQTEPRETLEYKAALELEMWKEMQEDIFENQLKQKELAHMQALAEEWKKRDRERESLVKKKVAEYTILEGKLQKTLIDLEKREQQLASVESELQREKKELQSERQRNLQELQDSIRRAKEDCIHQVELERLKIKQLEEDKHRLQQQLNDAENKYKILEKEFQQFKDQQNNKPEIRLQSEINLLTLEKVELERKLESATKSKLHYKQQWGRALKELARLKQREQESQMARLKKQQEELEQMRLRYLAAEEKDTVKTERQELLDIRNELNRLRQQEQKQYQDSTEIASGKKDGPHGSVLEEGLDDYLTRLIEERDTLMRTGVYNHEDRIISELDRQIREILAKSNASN

[1] = target: Talpid3, full-length (1–1533), N-terminally Flag-tagged (human) (UniProt Q9BVV6); assay: co-IP; Fig. 4d: 293T cells stably expressing N-terminally Myc-tagged C2CD3 and N-terminally Flag-tagged Talpid3; immunoprecipitated with anti-Flag antibody; eluates immunoblotted
[2] = target: T2, Talpid3 residues 466–1533, N-terminally Flag-tagged (human) (UniProt Q9BVV6); assay: as above
T2 sequence: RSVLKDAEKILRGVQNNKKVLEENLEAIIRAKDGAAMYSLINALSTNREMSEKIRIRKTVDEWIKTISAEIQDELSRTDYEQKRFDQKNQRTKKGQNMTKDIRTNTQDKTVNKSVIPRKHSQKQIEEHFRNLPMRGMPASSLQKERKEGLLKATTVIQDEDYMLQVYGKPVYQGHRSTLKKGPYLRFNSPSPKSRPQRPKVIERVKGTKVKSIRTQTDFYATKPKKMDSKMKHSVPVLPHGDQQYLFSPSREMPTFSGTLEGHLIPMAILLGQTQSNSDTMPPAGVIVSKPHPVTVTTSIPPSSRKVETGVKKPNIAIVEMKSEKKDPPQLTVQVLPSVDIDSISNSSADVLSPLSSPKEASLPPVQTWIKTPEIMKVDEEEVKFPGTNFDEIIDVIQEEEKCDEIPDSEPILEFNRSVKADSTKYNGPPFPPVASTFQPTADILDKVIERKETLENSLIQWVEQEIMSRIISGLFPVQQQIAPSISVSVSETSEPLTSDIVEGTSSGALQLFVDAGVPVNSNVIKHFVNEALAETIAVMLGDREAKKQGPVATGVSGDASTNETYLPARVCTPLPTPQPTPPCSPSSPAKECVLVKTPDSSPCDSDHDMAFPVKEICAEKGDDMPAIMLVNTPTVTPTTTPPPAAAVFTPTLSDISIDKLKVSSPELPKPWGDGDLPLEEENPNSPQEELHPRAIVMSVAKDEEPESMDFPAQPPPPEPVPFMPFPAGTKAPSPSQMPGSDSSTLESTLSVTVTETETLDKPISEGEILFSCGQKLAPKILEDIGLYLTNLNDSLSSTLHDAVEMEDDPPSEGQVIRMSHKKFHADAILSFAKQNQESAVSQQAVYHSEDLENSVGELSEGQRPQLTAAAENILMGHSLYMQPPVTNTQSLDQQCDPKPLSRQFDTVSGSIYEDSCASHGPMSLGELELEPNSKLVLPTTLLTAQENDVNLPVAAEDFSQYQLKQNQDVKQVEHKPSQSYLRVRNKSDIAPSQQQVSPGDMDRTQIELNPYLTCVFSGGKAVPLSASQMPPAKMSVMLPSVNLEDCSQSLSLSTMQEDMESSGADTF

Molecule: Talpid3, full-length (1–1533), Myc-tagged (from UniProt Q9BVV6 1-1533)
binding (CEP120): binds

B2: Talpid3 fragment spanning residues 466–1000, Myc-tagged (domain or fragment, UniProt Q9BVV6 466-1000)
chain: RSVLKDAEKILRGVQNNKKVLEENLEAIIRAKDGAAMYSLINALSTNREMSEKIRIRKTVDEWIKTISAEIQDELSRTDYEQKRFDQKNQRTKKGQNMTKDIRTNTQDKTVNKSVIPRKHSQKQIEEHFRNLPMRGMPASSLQKERKEGLLKATTVIQDEDYMLQVYGKPVYQGHRSTLKKGPYLRFNSPSPKSRPQRPKVIERVKGTKVKSIRTQTDFYATKPKKMDSKMKHSVPVLPHGDQQYLFSPSREMPTFSGTLEGHLIPMAILLGQTQSNSDTMPPAGVIVSKPHPVTVTTSIPPSSRKVETGVKKPNIAIVEMKSEKKDPPQLTVQVLPSVDIDSISNSSADVLSPLSSPKEASLPPVQTWIKTPEIMKVDEEEVKFPGTNFDEIIDVIQEEEKCDEIPDSEPILEFNRSVKADSTKYNGPPFPPVASTFQPTADILDKVIERKETLENSLIQWVEQEIMSRIISGLFPVQQQIAPSISVSVSETSEPLTSDIVEGTSSGALQLFVDAGVPVNSNVIKHFVNEALAE
binding (CEP120): binds

Further lines, results first:

binding [1]: binds
binding [2]: binds
Molecule: C2CD3, N-terminally Myc-tagged (from UniProt Q4AC94 1-2353)

binding (CEP120): binds
B1: Talpid3 1–602 fragment, Myc-tagged (domain or fragment, UniProt Q9BVV6 1-602)
chain: MPVKRLREVVSQNHGDHLVLLKDELPCVPPALSANKRLPVGTGTSLNGTSRGSSDLTSARNCYQPLLENPMVSESDFSKDVAVQVLPLDKIEENNKQKANDIFISQYTMGQKDALRTVLKQKAQSMPVFKEVKVHLLEDAGIEKDAVTQETRISPSGIDSATTVAAATAAAIATAAPLIKVQSDLEAKVNSVTELLSKLQETDKHLQRVTEQQTSIQRKQEKLHCHDHEKQMNVFMEQHIRHLEKLQQQQIDIQTHFISAALKTSSFQPVSMPSSRAVEKYSVKPEHPNLGSCNPSLYNTFASKQAPLKEVEDTSFDKQKSPLETPAPRRFAPVPVSRDDELSKRENLLEEKENMEVSCHRGNVRLLEQILNNNDSLTRKSESSNTTSLTRSKIGWTPEKTNRFPSCEELETTKVTMQKSDDVLHDLGQKEKETNSMVQPKESLSMLKLPDLPQNSVKLQTTNTTRSVLKDAEKILRGVQNNKKVLEENLEAIIRAKDGAAMYSLINALSTNREMSEKIRIRKTVDEWIKTISAEIQDELSRTDYEQKRFDQKNQRTKKGQNMTKDIRTNTQDKTVNKSVIPRKHSQKQIEEHFRNLPMRGM
